Assay results as given in the supplement of paper PMC8728848.
The other results are listed elsewhere or left out.

Experiments:
Test in all cases: glycan array binding signal (z-score within array); higher = stronger binding
Conditions in all cases: glycan notation: IUPAC condensed, linker removed
[1] = target: Gal(b1-4)GlcNAc(b1-3)Gal(b1-4)[Fuc(a1-3)]GlcNAc(b1-3)Gal(b1-4)[Fuc(a1-3)]GlcNAc
Procedure, shortened: (§1)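 Glycan array data were curated from 3228 arrays in the Consortium for Functional Glycomics database and kept only where the protein sequence was available. Glycan names were converted to IUPAC-condensed notation, and columns mapping to the same glycan were averaged. The binding signal is a within-array Z-score, averaged across arrays of the same protein sequence at different concentrations or buffers and across linkers. Negative Z-scores can be read as non-binding.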

[2] = target: Gal(b1-4)GlcNAc(b1-3)GalNAc
Procedure, shortened: as §1

[3] = target: Gal(b1-4)GlcNAc(b1-3)[Fuc(a1-3)GlcNAc(b1-6)]Gal(b1-4)Glc
Procedure, shortened: as §1

[4] = target: Gal(b1-4)GlcNAc(b1-3)[Gal(b1-4)GlcNAc(b1-6)]Gal(b1-4)GlcNAc
Procedure, shortened: as §1

[5] = target: Gal(b1-4)GlcNAc(b1-3)[Gal(b1-4)GlcNAc(b1-6)]GalNAc
Procedure, shortened: as §1

[6] = target: Gal(b1-4)GlcNAc(b1-3)[GlcNAc(b1-6)]Gal(b1-4)GlcNAc
Procedure, shortened: as §1

[7] = target: Gal(b1-4)GlcNAc(b1-6)Gal(b1-4)GlcNAc
Procedure, shortened: as §1

[8] = target: Gal(b1-4)GlcNAc(b1-6)GalNAc
Procedure, shortened: as §1

[9] = target: Gal(b1-4)GlcNAc(b1-6)[Gal(b1-3)]GalNAc
Procedure, shortened: as §1

[10] = target: Gal(b1-4)GlcNAc(b1-6)[Gal(b1-4)GlcNAc(b1-3)]GalNAc
Procedure, shortened: as §1

Gal(b1-4)GlcNAc6P = target: Gal(b1-4)GlcNAc6P
Procedure, shortened: as §1

Gal(b1-6)Gal = target: Gal(b1-6)Gal
Procedure, shortened: as §1

Gal3S(b1-3)GalNAc = target: Gal3S(b1-3)GalNAc
Procedure, shortened: as §1

Gal3S(b1-3)GlcNAc = target: Gal3S(b1-3)GlcNAc
Procedure, shortened: as §1

[11] = target: Gal3S(b1-3)[Fuc(a1-4)]GlcNAc
Procedure, shortened: as §1

Gal3S(b1-4)Glc = target: Gal3S(b1-4)Glc
Procedure, shortened: as §1

Gal3S(b1-4)Glc6S = target: Gal3S(b1-4)Glc6S
Procedure, shortened: as §1

Gal3S(b1-4)GlcNAc = target: Gal3S(b1-4)GlcNAc
Procedure, shortened: as §1

Gal3S(b1-4)GlcNAc6S = target: Gal3S(b1-4)GlcNAc6S
Procedure, shortened: as §1

[12] = target: Gal3S(b1-4)[Fuc(a1-3)]Glc
Procedure, shortened: as §1

[13] = target: Gal3S(b1-4)[Fuc(a1-3)]Glc6S
Procedure, shortened: as §1

[14] = target: Gal3S(b1-4)[Fuc(a1-3)]GlcNAc
Procedure, shortened: as §1

[15] = target: Gal3S(b1-4)[Fuc(a1-3)]GlcNAc6S
Procedure, shortened: as §1

Gal3S4S(b1-4)GlcNAc = target: Gal3S4S(b1-4)GlcNAc
Procedure, shortened: as §1

Gal3S6S(b1-4)GlcNAc = target: Gal3S6S(b1-4)GlcNAc
Procedure, shortened: as §1

Gal3S6S(b1-4)GlcNAc6S = target: Gal3S6S(b1-4)GlcNAc6S
Procedure, shortened: as §1

Gal4S(b1-4)GlcNAc = target: Gal4S(b1-4)GlcNAc
Procedure, shortened: as §1

Gal4S6S(b1-4)GlcNAc = target: Gal4S6S(b1-4)GlcNAc
Procedure, shortened: as §1

Gal6P(b1-4)GlcNAc = target: Gal6P(b1-4)GlcNAc
Procedure, shortened: as §1

Gal6S(b1-3)GlcNAc = target: Gal6S(b1-3)GlcNAc
Procedure, shortened: as §1

Gal6S(b1-3)GlcNAc6S = target: Gal6S(b1-3)GlcNAc6S
Procedure, shortened: as §1

Gal6S(b1-4)Glc = target: Gal6S(b1-4)Glc
Procedure, shortened: as §1

Gal6S(b1-4)Glc6S = target: Gal6S(b1-4)Glc6S
Procedure, shortened: as §1

Gal6S(b1-4)GlcNAc = target: Gal6S(b1-4)GlcNAc
Procedure, shortened: as §1

Gal6S(b1-4)GlcNAc6S = target: Gal6S(b1-4)GlcNAc6S
Procedure, shortened: as §1

GalNAc(a1-3)Gal = target: GalNAc(a1-3)Gal
Procedure, shortened: as §1

GalNAc(a1-3)GalNAc = target: GalNAc(a1-3)GalNAc
Procedure, shortened: as §1

[16] = target: GalNAc(a1-3)GalNAc(a1-3)Gal(a1-4)Gal(b1-4)GlcNAc
Procedure, shortened: as §1

[17] = target: GalNAc(a1-3)GalNAc(b1-3)Gal(a1-4)Gal(b1-4)Glc
Procedure, shortened: as §1

[18] = target: GalNAc(a1-3)GalNAc(b1-3)Gal(a1-4)Gal(b1-4)GlcNAc
Procedure, shortened: as §1

GalNAc(b1-3)Gal = target: GalNAc(b1-3)Gal
Procedure, shortened: as §1

[19] = target: GalNAc(b1-3)Gal(a1-4)Gal(b1-4)GlcNAc
Procedure, shortened: as §1

[20] = target: GalNAc(b1-3)Gal(a1-4)Gal(b1-4)GlcNAc(b1-3)Gal(b1-4)Glc
Procedure, shortened: as §1

[21] = target: GalNAc(b1-3)Gal(a1-6)Gal(b1-4)Glc
Procedure, shortened: as §1

GalNAc(b1-3)GalNAc = target: GalNAc(b1-3)GalNAc
Procedure, shortened: as §1

B1: CRT-1 (Homo sapiens), P27797 (protein)
chain: MLLSVPLLLGLLGLAVAEPAVYFKEQFLDGDGWTSRWIESKHKSDFGKFVLSSGKFYGDEEKDKGLQTSQDARFYALSASFEPFSNKGQTLVVQFTVKHEQNIDCGGGYVKLFPNSLDQTDMHGDSEYNIMFGPDICGPGTKKVHVIFNYKGKNVLINKDIRCKDDEFTHLYTLIVRPDNTYEVKIDNSQVESGSLEDDWDFLPPKKIKDPDASKPEDWDERAKIDDPTDSKPEDWDKPEHIPDPDAKKPEDWDEEMDGEWEPPVIQNPEYKGEWKPRQIDNPDYKGTWIHPEIDNPEYSPDPSIYAYDNFGVLGLDLWQVKSGTIFDNFLITNDEAYAEEFGNETWGVTKAAEKQMKDKQDEEQRLKEEEEDKKRKEEEEAEDKEDDEDKDEDEEDEEDKEEDEEEDVPGQAKDEL
B1 was tested, and the “glycan array binding signal (z-score)” value [1] was -0.134, the “glycan array binding signal (z-score)” value [2] was 0.162 and the “glycan array binding signal (z-score)” value [3] was -0.465. The “glycan array binding signal (z-score)” value [4] was 0.487, the “glycan array binding signal (z-score)” value [5] was -0.095 and the “glycan array binding signal (z-score)” value [6] was -0.718. For the same binder, the “glycan array binding signal (z-score)” value [7] was 0.808, the “glycan array binding signal (z-score)” value [8] was 0.085 and the “glycan array binding signal (z-score)” value [9] was -0.381. For the same binder, the “glycan array binding signal (z-score)” value [10] was -0.338, the “glycan array binding signal (z-score)” value (Gal(b1-4)GlcNAc6P) was -0.031 and the “glycan array binding signal (z-score)” value (Gal(b1-6)Gal) was 0.008. For the same binder, the “glycan array binding signal (z-score)” value (Gal3S(b1-3)GalNAc) was -0.188, the “glycan array binding signal (z-score)” value (Gal3S(b1-3)GlcNAc) was -0.208 and the “glycan array binding signal (z-score)” value [11] was -0.085. For the same binder, the “glycan array binding signal (z-score)” value (Gal3S(b1-4)Glc) was -0.53, the “glycan array binding signal (z-score)” value (Gal3S(b1-4)Glc6S) was -0.054 and the “glycan array binding signal (z-score)” value (Gal3S(b1-4)GlcNAc) was 0.11. For the same binder, the “glycan array binding signal (z-score)” value (Gal3S(b1-4)GlcNAc6S) was -0.498, the “glycan array binding signal (z-score)” value [12] was -0.4 and the “glycan array binding signal (z-score)” value [13] was 0.706. For the same binder, the “glycan array binding signal (z-score)” value [14] was 0.503, the “glycan array binding signal (z-score)” value [15] was 0.148 and the “glycan array binding signal (z-score)” value (Gal3S4S(b1-4)GlcNAc) was -0.367. The “glycan array binding signal (z-score)” value (Gal3S6S(b1-4)GlcNAc) was 0.514, the “glycan array binding signal (z-score)” value (Gal3S6S(b1-4)GlcNAc6S) was -0.048 and the “glycan array binding signal (z-score)” value (Gal4S(b1-4)GlcNAc) was -0.404. The “glycan array binding signal (z-score)” value (Gal4S6S(b1-4)GlcNAc) was -0.98, the “glycan array binding signal (z-score)” value (Gal6P(b1-4)GlcNAc) was -0.578 and the “glycan array binding signal (z-score)” value (Gal6S(b1-3)GlcNAc) was -0.236. For the same binder, the “glycan array binding signal (z-score)” value (Gal6S(b1-3)GlcNAc6S) was 0.965, the “glycan array binding signal (z-score)” value (Gal6S(b1-4)Glc) was -0.297 and the “glycan array binding signal (z-score)” value (Gal6S(b1-4)Glc6S) was -0.096. For the same binder, the “glycan array binding signal (z-score)” value (Gal6S(b1-4)GlcNAc) was -0.673, the “glycan array binding signal (z-score)” value (Gal6S(b1-4)GlcNAc6S) was 1.47 and the “glycan array binding signal (z-score)” value (GalNAc(a1-3)Gal) was 0.04. For the same binder, the “glycan array binding signal (z-score)” value (GalNAc(a1-3)GalNAc) was 0.075, the “glycan array binding signal (z-score)” value [16] was -0.139 and the “glycan array binding signal (z-score)” value [17] was -0.706. The “glycan array binding signal (z-score)” value [18] was 0.706, the “glycan array binding signal (z-score)” value (GalNAc(b1-3)Gal) was -0.401 and the “glycan array binding signal (z-score)” value [19] was 0.487. For the same binder, the “glycan array binding signal (z-score)” value [20] was 0.488, the “glycan array binding signal (z-score)” value [21] was -0.568 and the “glycan array binding signal (z-score)” value (GalNAc(b1-3)GalNAc) was 0.025.
